Earlier results, collected in PMC10364322, “Evaluation of chronic drug-induced electrophysiological and cytotoxic effects using human-induced pluripotent stem cell-derived cardiomyocytes (hiPSC-CMs)” (Frontiers in Pharmacology, 2023).

Conditions: free therapeutic Cmax in humans; ref FDA-approved drug packages, PharmaPendium; cited from earlier work

O=C(O)COCCN1CCN(C(c2ccccc2)c2ccc(Cl)cc2)CC1 (stereo not shown) [Cetirizine]
Free Cmax: 100 nM
